Data as given in the supplement of paper PMC12823440, “Inhibitors supercharge kinase turnover through native proteolytic circuits” (Nature, 2025).
Where a name gives a salt, the structure may show the parent alone. The list shows a part of the results. Hit calls seldom repeat between salt and free forms of one compound.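 Kinases were expressed as nanoluciferase fusions in K562 cells and luminescence was read every 4 h between 2 and 18 h as percent of control, DMSO set to 100% and a positive control to 0%. A time point counts as decreased when the signal drops significantly (2 sigma). The hit call is the authors' own, does not follow from the count of time points alone, and its rule is not shown.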

Sequences of proteins named here, by UniProt entry; tags and fusion partners are left off. A change or cut given only in a name is not applied to a line headed by its entry.
UniProt Q9BUB5: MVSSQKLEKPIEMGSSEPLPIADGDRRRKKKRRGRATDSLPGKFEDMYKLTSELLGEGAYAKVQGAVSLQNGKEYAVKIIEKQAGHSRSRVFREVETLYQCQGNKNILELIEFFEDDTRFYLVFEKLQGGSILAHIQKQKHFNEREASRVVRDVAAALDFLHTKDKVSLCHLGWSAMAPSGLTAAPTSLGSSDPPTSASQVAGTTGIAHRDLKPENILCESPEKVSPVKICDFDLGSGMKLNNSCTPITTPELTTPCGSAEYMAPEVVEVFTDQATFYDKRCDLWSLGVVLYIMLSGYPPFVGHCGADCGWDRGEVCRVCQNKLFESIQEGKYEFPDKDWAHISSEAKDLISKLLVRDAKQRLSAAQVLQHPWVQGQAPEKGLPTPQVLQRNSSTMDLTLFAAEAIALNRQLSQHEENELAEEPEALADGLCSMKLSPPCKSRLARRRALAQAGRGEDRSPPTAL
UniProt Q16620, whole entry, looked up: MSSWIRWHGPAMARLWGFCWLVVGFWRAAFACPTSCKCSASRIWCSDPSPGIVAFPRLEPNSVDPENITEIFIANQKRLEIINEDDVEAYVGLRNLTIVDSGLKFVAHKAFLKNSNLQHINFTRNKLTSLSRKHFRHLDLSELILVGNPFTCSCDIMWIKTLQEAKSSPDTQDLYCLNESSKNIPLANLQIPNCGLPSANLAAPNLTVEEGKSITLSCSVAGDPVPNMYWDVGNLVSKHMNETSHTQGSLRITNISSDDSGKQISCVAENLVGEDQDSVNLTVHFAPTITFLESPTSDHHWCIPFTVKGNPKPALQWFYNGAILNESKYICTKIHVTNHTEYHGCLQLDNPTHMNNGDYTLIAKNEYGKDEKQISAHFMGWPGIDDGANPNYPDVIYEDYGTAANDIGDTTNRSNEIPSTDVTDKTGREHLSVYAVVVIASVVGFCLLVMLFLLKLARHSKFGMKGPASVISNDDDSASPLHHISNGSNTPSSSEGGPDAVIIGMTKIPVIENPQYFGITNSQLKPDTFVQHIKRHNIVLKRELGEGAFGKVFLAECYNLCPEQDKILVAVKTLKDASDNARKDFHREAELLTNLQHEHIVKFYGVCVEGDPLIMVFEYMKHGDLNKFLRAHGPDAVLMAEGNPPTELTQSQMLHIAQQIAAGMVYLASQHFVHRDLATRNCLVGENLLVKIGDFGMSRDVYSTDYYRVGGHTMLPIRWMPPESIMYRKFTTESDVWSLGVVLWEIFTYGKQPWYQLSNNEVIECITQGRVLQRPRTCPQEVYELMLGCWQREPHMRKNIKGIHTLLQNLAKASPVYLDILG
UniProt O15530: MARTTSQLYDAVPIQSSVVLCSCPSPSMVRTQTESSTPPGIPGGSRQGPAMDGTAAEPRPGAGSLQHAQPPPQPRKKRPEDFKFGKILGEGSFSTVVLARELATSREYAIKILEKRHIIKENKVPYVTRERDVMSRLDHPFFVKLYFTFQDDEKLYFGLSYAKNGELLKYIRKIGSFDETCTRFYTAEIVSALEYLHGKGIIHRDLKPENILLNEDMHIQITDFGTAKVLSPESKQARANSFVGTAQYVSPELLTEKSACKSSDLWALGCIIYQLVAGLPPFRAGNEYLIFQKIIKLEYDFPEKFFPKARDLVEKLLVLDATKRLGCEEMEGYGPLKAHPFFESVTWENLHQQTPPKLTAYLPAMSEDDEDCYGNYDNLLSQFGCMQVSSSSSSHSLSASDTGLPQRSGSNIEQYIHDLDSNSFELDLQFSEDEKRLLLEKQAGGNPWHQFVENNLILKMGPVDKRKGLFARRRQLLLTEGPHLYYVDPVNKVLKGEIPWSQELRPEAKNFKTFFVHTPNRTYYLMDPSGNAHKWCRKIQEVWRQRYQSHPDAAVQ
UniProt P42356, whole entry, looked up: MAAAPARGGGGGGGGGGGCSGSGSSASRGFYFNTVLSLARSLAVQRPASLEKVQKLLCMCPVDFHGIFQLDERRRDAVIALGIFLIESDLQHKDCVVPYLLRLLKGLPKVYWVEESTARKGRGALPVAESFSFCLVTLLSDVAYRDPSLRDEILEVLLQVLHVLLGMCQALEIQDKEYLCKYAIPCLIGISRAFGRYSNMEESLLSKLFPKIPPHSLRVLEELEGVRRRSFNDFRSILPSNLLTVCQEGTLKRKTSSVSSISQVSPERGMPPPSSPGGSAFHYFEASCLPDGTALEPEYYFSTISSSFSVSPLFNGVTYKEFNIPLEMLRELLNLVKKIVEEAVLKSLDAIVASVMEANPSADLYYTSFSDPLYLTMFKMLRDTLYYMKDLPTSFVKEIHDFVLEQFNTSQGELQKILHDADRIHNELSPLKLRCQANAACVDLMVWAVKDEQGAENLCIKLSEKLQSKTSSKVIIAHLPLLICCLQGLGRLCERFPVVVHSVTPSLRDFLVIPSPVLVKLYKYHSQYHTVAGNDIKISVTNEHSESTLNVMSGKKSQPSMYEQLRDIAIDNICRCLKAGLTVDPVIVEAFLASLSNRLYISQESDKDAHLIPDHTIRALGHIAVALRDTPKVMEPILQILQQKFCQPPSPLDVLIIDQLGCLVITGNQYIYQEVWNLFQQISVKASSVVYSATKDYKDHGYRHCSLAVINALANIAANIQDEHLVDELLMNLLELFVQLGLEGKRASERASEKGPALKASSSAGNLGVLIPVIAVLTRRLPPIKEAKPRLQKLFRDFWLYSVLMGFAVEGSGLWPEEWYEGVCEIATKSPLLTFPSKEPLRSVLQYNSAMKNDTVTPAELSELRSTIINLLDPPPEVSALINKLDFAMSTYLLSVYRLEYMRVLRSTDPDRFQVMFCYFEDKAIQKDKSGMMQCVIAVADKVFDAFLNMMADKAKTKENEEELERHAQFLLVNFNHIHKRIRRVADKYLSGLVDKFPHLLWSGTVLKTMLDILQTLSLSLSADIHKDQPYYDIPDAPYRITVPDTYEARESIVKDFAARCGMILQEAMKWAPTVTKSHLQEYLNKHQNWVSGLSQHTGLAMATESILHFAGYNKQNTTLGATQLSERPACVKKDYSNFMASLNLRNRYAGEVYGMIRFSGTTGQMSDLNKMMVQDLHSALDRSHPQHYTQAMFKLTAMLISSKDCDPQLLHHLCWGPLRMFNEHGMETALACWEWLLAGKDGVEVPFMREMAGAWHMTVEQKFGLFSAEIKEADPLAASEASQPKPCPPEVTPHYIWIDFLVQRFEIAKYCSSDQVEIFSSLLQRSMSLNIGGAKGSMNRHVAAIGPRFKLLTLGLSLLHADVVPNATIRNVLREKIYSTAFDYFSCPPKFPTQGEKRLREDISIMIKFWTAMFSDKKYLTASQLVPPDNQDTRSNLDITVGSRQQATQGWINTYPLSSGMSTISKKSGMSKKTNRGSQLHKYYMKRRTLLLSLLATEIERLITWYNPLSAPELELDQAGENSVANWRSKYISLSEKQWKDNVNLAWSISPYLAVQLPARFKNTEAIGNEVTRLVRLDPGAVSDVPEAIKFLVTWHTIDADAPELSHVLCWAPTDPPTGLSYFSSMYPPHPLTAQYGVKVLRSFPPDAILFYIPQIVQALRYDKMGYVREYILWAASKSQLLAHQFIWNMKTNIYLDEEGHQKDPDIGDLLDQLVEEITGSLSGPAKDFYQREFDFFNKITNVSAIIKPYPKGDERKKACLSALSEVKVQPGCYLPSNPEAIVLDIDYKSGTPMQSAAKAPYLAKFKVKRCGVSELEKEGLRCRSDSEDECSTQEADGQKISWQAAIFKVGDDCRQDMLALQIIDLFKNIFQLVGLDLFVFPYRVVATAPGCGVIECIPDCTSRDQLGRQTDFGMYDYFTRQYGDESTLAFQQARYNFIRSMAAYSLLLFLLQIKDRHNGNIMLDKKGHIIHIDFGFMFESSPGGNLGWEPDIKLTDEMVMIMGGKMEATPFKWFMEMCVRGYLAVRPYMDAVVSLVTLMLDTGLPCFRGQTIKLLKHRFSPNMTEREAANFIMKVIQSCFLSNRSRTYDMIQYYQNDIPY
UniProt Q9UBF8: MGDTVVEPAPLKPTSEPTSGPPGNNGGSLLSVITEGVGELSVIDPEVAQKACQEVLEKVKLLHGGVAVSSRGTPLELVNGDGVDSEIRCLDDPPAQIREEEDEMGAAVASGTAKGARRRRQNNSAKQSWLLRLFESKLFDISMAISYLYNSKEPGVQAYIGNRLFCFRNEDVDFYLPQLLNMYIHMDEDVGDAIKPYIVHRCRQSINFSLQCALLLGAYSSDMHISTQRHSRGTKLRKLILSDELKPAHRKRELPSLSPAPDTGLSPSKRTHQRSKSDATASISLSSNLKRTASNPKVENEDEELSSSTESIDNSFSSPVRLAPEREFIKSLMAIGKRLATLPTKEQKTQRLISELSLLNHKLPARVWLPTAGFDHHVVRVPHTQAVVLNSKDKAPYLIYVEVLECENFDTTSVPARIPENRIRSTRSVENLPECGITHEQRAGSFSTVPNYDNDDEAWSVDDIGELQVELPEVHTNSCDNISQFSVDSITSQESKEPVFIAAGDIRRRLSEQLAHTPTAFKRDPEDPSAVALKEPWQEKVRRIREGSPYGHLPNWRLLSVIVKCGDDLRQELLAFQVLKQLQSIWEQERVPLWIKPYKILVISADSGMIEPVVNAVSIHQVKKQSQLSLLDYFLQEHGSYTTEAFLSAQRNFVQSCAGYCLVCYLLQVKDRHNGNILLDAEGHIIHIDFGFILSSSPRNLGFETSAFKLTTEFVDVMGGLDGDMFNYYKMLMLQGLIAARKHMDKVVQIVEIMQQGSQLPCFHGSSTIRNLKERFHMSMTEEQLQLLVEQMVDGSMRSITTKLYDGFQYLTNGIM
UniProt Q13131: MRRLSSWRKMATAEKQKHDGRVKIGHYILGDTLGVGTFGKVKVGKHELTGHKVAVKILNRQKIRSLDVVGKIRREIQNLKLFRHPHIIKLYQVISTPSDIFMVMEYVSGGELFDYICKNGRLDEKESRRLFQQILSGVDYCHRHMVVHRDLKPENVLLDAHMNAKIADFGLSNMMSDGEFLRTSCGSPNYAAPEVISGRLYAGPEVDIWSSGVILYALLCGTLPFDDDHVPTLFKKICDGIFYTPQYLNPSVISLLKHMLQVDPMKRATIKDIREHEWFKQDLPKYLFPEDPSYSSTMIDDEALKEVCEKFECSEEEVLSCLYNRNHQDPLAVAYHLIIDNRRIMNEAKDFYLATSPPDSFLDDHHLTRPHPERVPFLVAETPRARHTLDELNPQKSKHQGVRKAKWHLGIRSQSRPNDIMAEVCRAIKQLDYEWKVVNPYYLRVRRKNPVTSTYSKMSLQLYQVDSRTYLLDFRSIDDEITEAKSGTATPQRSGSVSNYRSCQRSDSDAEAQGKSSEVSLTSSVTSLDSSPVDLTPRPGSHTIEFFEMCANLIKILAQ
UniProt Q05397, whole entry, looked up: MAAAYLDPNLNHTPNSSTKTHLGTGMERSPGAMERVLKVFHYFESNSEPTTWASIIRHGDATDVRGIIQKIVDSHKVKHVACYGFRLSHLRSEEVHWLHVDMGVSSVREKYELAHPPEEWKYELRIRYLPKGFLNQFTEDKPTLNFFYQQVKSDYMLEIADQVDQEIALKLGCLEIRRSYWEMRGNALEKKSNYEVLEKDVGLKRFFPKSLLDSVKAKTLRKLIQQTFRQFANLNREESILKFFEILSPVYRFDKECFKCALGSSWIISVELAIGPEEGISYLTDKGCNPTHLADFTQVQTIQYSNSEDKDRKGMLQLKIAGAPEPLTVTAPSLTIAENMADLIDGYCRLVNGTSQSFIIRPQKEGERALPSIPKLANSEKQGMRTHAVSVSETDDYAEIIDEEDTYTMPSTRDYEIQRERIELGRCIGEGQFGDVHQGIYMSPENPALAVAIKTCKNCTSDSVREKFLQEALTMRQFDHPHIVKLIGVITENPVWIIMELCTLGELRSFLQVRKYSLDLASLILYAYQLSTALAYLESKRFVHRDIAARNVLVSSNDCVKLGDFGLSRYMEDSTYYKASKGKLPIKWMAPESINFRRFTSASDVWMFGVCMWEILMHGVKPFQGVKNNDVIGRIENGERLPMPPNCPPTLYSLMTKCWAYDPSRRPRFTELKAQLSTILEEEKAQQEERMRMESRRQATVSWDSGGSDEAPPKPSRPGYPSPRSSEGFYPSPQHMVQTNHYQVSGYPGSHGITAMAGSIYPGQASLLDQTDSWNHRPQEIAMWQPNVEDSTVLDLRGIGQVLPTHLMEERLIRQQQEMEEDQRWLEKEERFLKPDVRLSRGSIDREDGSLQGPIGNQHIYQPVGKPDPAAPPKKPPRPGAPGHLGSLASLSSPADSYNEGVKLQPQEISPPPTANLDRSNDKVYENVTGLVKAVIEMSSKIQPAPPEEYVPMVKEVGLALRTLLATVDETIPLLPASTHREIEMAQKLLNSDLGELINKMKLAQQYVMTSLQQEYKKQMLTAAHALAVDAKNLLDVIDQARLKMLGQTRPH

Columns and labels:
Assay in all cases: kinase-Nluc reporter destabilization hit call (1 = scored as downregulated) (binary); higher = compound decreases kinase abundance
Details in all cases: K562, 2-18 h
[1] = target: MAPK1 (UniProt P28482)
[2] = target: MAPK4 (UniProt P31152)
[3] = target: MAPKAPK2 (UniProt P49137)
[4] = target: MKNK1 (UniProt Q9BUB5)
[5] = target: NTRK2 (UniProt Q16620)
[6] = target: NTRK3 (UniProt Q16288)
[7] = target: PAK4 (UniProt O96013)
[8] = target: PBK (UniProt Q96KB5)
[9] = target: PDGFRB (UniProt P09619)
[10] = target: PDK1 (UniProt Q15118)
[11] = target: PDPK1 (UniProt O15530)
[12] = target: PIK4CA (UniProt P42356)
[13] = target: PIK4CB (UniProt Q9UBF8)
[14] = target: PLK1 (UniProt P53350)
[15] = target: PRKAA1 (UniProt Q13131)
[16] = target: PRKCA (UniProt P17252)
[17] = target: PTK2 (UniProt Q05397)
[18] = target: PTK2B (UniProt Q14289)
[19] = target: RAF1 (UniProt P04049)
[20] = target: RAF1_S257L (clone: RAF1_mut) (UniProt P04049)

Measured: kinase-Nluc reporter destabilization hit call

CS(=O)(=O)N1CCN(Cc2cc3nc(-c4cccc5[nH]ncc45)nc(N4CCOCC4)c3s2)CC1 [Pictilisib (dimethanesulfonate)]
inactive: [1]; 10 µM 0 | [2]; 10 µM 0 | [3]; 10 µM 0 | [4]; 10 µM 0 | [5]; 10 µM 0 | [6]; 10 µM 0 | [7]; 10 µM 0 | [8]; 10 µM 0 | [9]; 10 µM 0 | [10]; 10 µM 0 | [11]; 10 µM 0 | [12]; 10 µM 0 | [13]; 10 µM 0 | [14]; 10 µM 0 | [15]; 10 µM 0 | [16]; 10 µM 0 | [17]; 10 µM 0 | [18]; 10 µM 0 | [19]; 10 µM 0 | [20]; 10 µM 0

COc1ccc2c(c1)C(c1ccc(F)cc1)=C(CN1CCCC1)CO2 [AX-024 hydrochloride]
inactive: [1]; 10 µM 0 | [2]; 10 µM 0 | [3]; 10 µM 0 | [4]; 10 µM 0 | [5]; 10 µM 0 | [6]; 10 µM 0 | [7]; 10 µM 0 | [8]; 10 µM 0 | [9]; 10 µM 0 | [10]; 10 µM 0 | [11]; 10 µM 0 | [12]; 10 µM 0 | [13]; 10 µM 0 | [14]; 10 µM 0 | [15]; 10 µM 0 | [16]; 10 µM 0 | [17]; 10 µM 0 | [18]; 10 µM 0 | [19]; 10 µM 0 | [20]; 10 µM 0

COc1ccc2c(c1)C(c1ccc(F)cc1)=C(CN1CCCC1)CO2
inactive: [1]; 10 µM 0 | [2]; 10 µM 0 | [3]; 10 µM 0 | [4]; 10 µM 0 | [5]; 10 µM 0 | [6]; 10 µM 0 | [7]; 10 µM 0 | [8]; 10 µM 0 | [9]; 10 µM 0 | [10]; 10 µM 0 | [11]; 10 µM 0 | [12]; 10 µM 0 | [13]; 10 µM 0 | [14]; 10 µM 0 | [15]; 10 µM 0 | [16]; 10 µM 0 | [17]; 10 µM 0 | [18]; 10 µM 0 | [19]; 10 µM 0 | [20]; 10 µM 0

CNC(=O)c1ccc(Nc2ncc(C(F)(F)F)c(NCc3nccnc3N(C)S(C)(=O)=O)n2)cc1 [Defactinib]
inactive: [1]; 10 µM 0 | [2]; 10 µM 0 | [3]; 10 µM 0 | [4]; 10 µM 0 | [5]; 10 µM 0 | [6]; 10 µM 0 | [7]; 10 µM 0 | [8]; 10 µM 0 | [9]; 10 µM 0 | [10]; 10 µM 0 | [11]; 10 µM 0 | [12]; 10 µM 0 | [13]; 10 µM 0 | [14]; 10 µM 0 | [15]; 10 µM 0 | [16]; 10 µM 0 | [17]; 10 µM 0 | [18]; 10 µM 0 | [19]; 10 µM 0 | [20]; 10 µM 0

N=C(N)NC(=O)c1nc(Cl)c(N)nc1N [Amiloride hydrochloride dihydrate]
inactive: [1]; 10 µM 0 | [2]; 10 µM 0 | [3]; 10 µM 0 | [4]; 10 µM 0 | [5]; 10 µM 0 | [6]; 10 µM 0 | [7]; 10 µM 0 | [8]; 10 µM 0 | [9]; 10 µM 0 | [10]; 10 µM 0 | [11]; 10 µM 0 | [12]; 10 µM 0 | [13]; 10 µM 0 | [14]; 10 µM 0 | [15]; 10 µM 0 | [16]; 10 µM 0 | [17]; 10 µM 0 | [18]; 10 µM 0 | [19]; 10 µM 0 | [20]; 10 µM 0

CCS(=O)(=O)N1CCN(c2ccc(Nc3ncc(C(N)=O)c(NC4CC4)n3)cc2)CC1 [Cerdulatinib]
inactive: [1]; 10 µM 0 | [2]; 10 µM 0 | [3]; 10 µM 0 | [4]; 10 µM 0 | [5]; 10 µM 0 | [6]; 10 µM 0 | [7]; 10 µM 0 | [8]; 10 µM 0 | [9]; 10 µM 0 | [10]; 10 µM 0 | [11]; 10 µM 0 | [12]; 10 µM 0 | [13]; 10 µM 0 | [14]; 10 µM 0 | [15]; 10 µM 0 | [16]; 10 µM 0 | [17]; 10 µM 0 | [18]; 10 µM 0 | [19]; 10 µM 0 | [20]; 10 µM 0

CNc1ncc2cc(-c3ccc(-c4cccc(C)n4)cc3Cl)c(=O)n(C[C@H]3OC[C@H](N)CO3)c2n1
inactive: [1]; 10 µM 0 | [2]; 10 µM 0 | [3]; 10 µM 0 | [4]; 10 µM 0 | [5]; 10 µM 0 | [6]; 10 µM 0 | [7]; 10 µM 0 | [8]; 10 µM 0 | [9]; 10 µM 0 | [10]; 10 µM 0 | [11]; 10 µM 0 | [12]; 10 µM 0 | [13]; 10 µM 0 | [14]; 10 µM 0 | [15]; 10 µM 0 | [16]; 10 µM 0 | [17]; 10 µM 0 | [18]; 10 µM 0 | [19]; 10 µM 0 | [20]; 10 µM 0

CC(C)Oc1ccc(-c2nn([C@@H](C)c3oc4ccc(F)cc4c(=O)c3-c3cccc(F)c3)c3ncnc(N)c23)cc1F [Umbralisib (hydrochloride)]
inactive: [1]; 2.5 µM 0 | [2]; 2.5 µM 0 | [3]; 2.5 µM 0 | [4]; 2.5 µM 0 | [5]; 2.5 µM 0 | [6]; 2.5 µM 0 | [7]; 2.5 µM 0 | [8]; 2.5 µM 0 | [9]; 2.5 µM 0 | [10]; 2.5 µM 0 | [11]; 2.5 µM 0 | [12]; 2.5 µM 0 | [13]; 2.5 µM 0 | [14]; 2.5 µM 0 | [15]; 2.5 µM 0 | [16]; 2.5 µM 0 | [17]; 2.5 µM 0 | [18]; 2.5 µM 0 | [19]; 2.5 µM 0 | [20]; 2.5 µM 0
